According to the supplement of paper PMC6418307:
Single values of this set are uncertain.

System: primary mouse cortical neurons
Test: cell health score (luciferase spike-in reads / total reads per well) (fraction); higher = fewer cellular reads, worse cell health / toxicity
Details: treatment time 24 h
[1] = 0.01 µM, sex of neuron culture: Female
[2] = 0.01 µM, sex of neuron culture: Male
[3] = 0.1 µM, sex of neuron culture: Female
[4] = 0.1 µM, sex of neuron culture: Male
[5] = 1 µM, sex of neuron culture: Female
[6] = 1 µM, sex of neuron culture: Male
[7] = 10 µM, sex of neuron culture: Female
[8] = 10 µM, sex of neuron culture: Male

Row | Compound | cell health score [1] | cell health score [2] | cell health score [3] | cell health score [4] | cell health score [5] | cell health score [6] | cell health score [7] | cell health score [8]
1 | CCOP(=S)(OCC)Oc1nc(Cl)n(C(C)C)n1 [Isazofos] | 0.000639 | 0.000821 | 0.000846 | 0.000913 | 0.00087 | 0.000753 | 0.000956 | 0.000552
2 | CCCCOC(=O)[C@H](C)Oc1ccc(Oc2ccc(C#N)cc2F)cc1 [Cyhalofop-butyl] | 0.000658 | 0.000836 | 0.00149 | 0.000873 | 0.00118 | 0.000653 | 0.00112 | 0.000943
3 | COc1c(Cl)ccc(Cl)c1C(=O)O [Dicamba] | 0.00039 | 0.000752 | 0.000852 | 0.000732 | 0.000922 | 0.000363 | 0.00136 | 0.00121
4 | CC1(C)C(C=C(Cl)Cl)C1C(=O)OC(C#N)c1ccc(F)c(Oc2ccccc2)c1 (stereo unspecified) [Cyfluthrin] | 0.000457 | 0.000833 | 0.000792 | 0.00118 | 0.00116 | 0.000545 | 0.000822 | 0.000467
5 | COC(=O)NS(=O)(=O)c1ccc(N)cc1 [Asulam] | 0.00071 | 0.000739 | 0.000771 | 0.00109 | 0.00158 | 0.000811 | 0.00153 | 0.000464
6 | CCO/N=C(\CC)C1=C(O)CC(c2c(C)cc(C)cc2C)CC1=O (stereo unspecified) [Tralkoxydim] | 0.000544 | 0.0007 | 0.00167 | 0.000884 | 0.000835 | 0.00067 | 0.0014 | 0.000913
7 | Nc1c(Cl)c(Cl)nc(C(=O)O)c1Cl [Picloram] | 0.000456 | 0.000585 | 0.00057 | 0.000825 | 0.000753 | 0.000786 | 0.000351 | 0.000669
8 | CC1(C)C(C=C(Cl)Cl)C1C(=O)OCc1cccc(Oc2ccccc2)c1 (stereo unspecified) [Permethrin] | 0.000572 | 0.000836 | 0.000811 | 0.00095 | 0.000791 | 0.000912 | 0.000966 | 0.000461
9 | CCOc1cc(Oc2ccc(C(F)(F)F)cc2Cl)ccc1[N+](=O)[O-] [Oxyfluorfen] | 0.000551 | 0.00145 | 0.00125 | 0.00107 | 0.000962 | 0.000528 | 0.0013 | 0.000604
10 | O=C(O)COc1nc(Cl)c(Cl)cc1Cl [Triclopyr] | 0.000573 | 0.00093 | 0.0015 | 0.000894 | 0.000715 | 0.000765 | 0.00105 | 0.000444
11 | CCCN(CCOc1c(Cl)cc(Cl)cc1Cl)C(=O)n1ccnc1 [Prochloraz] | 0.000473 | 0.000685 | 0.000631 | 0.000631 | 0.000825 | 0.00108 | 0.000731 | 0.000661
12 | CCC(C)(NC(=O)c1cc(Cl)c(C)c(Cl)c1)C(=O)CCl (stereo unspecified) [Zoxamide] | 0.000603 | 0.00067 | 0.000658 | 0.00083 | 0.000697 | 0.000659 | 0.00147 | 0.00584
13 | CSC(=O)c1cccc2nnsc12 [Acibenzolar-S-methyl] | 0.000583 | 0.000857 | 0.000634 | 0.000858 | 0.000693 | 0.001 | 0.00107 | 0.000666
14 | CCCCCCOC(=O)[C@]1(O)C[C@@H]2O[C@@]1(C)n1c3ccccc3c3c4c(c5c6ccccc6n2c5c31)C(=O)NC4 [KT5720] | 0.000743 | 0.000756 | 0.00076 | 0.000703 | 0.000524 | 0.00109 | 0.00104 | 0.000606
15 | COP(=O)(OC)OC=C(Cl)Cl [Dichlorvos] | 0.000541 | 0.00086 | 0.000613 | 0.000763 | 0.000724 | 0.000606 | 0.00135 | 0.000531
16 | CN1COCN(Cc2cnc(Cl)s2)/C1=N\[N+](=O)[O-] [Thiamethoxam] | 0.000599 | 0.000838 | 0.000574 | 0.000926 | 0.000766 | 0.000867 | 0.00118 | 0.00046
17 | CC1(C)CON(Cc2ccccc2Cl)C1=O [Clomazone] | 0.000964 | 0.00098 | 0.000687 | 0.000733 | 0.000779 | 0.00082 | 0.000888 | 0.000372
18 | CCCCOC(=O)[C@@H](C)Oc1ccc(Oc2ccc(C(F)(F)F)cn2)cc1 [Fluazifop-P-butyl] | 0.000553 | 0.000863 | 0.000745 | 0.000795 | 0.000933 | 0.00046 | 0.00101 | 0.000499
19 | CN(C)NC(=O)CCC(=O)O [Daminozide] | 0.000641 | 0.000743 | 0.00135 | 0.00267 | 0.000996 | 0.000568 | 0.0013 | 0.000496
20 | CO/N=C(/C(=O)OC)c1ccccc1CO/N=C(\C)c1cccc(C(F)(F)F)c1 [Trifloxystrobin] | 0.00253 | 0.0134 | 0.00529 | 0.0163 | 0.00665 | 0.014 | 0.0198 | 0.0357
21 | COCC(C)N(C(=O)CCl)c1c(C)csc1C (stereo unspecified) [Dimethenamid] | 0.000574 | 0.00104 | 0.00168 | 0.00106 | 0.00117 | 0.00071 | 0.00133 | 0.00217
22 | CCCCOC(=O)c1ccccc1C(=O)O [Monobutyl phthalate] | 0.000474 | 0.000786 | 0.000546 | 0.000863 | 0.000695 | 0.000432 | 0.000756 | 0.00068
23 | C=CCC1=C(C)[C@@H](OC(=O)[C@@H]2[C@@H](C=C(C)C)C2(C)C)CC1=O [S-Bioallethrin] | 0.000641 | 0.00103 | 0.000839 | 0.000786 | 0.000716 | 0.000847 | 0.000918 | 0.000764
24 | CCCCC(O)(Cn1cncn1)c1ccc(Cl)cc1Cl (stereo unspecified) [Hexaconazole] | 0.000447 | 0.000952 | 0.00155 | 0.000948 | 0.000777 | 0.000793 | 0.00259 | 0.00168
25 | Cc1cnc(C2=NC(=O)C(C)(C(C)C)N2)c(C(=O)O)c1 (stereo unspecified) [Imazapic] | 0.000595 | 0.000719 | 0.00071 | 0.000612 | 0.00097 | 0.000289 | 0.000882 | 0.000748
26 | O=[N+]([O-])c1cc(C(F)(F)F)c(Cl)c([N+](=O)[O-])c1Nc1ncc(C(F)(F)F)cc1Cl [Fluazinam] | 0.000609 | 0.00122 | 0.000751 | 0.000937 | 0.00153 | 0.00102 | 0.0251 | 0.0394
27 | Cc1ccn2nc(S(=O)(=O)Nc3c(F)cccc3F)nc2n1 [Flumetsulam] | 0.000443 | 0.000795 | 0.000851 | 0.00162 | 0.00125 | 0.000846 | 0.00105 | 0.000493

Among those listed so far, these have a cyano group:
Row | Compound | cell health score [1] | cell health score [2] | cell health score [3] | cell health score [4] | cell health score [5] | cell health score [6] | cell health score [7] | cell health score [8]
2 | CCCCOC(=O)[C@H](C)Oc1ccc(Oc2ccc(C#N)cc2F)cc1 [Cyhalofop-butyl] | 0.000658 | 0.000836 | 0.00149 | 0.000873 | 0.00118 | 0.000653 | 0.00112 | 0.000943
4 | CC1(C)C(C=C(Cl)Cl)C1C(=O)OC(C#N)c1ccc(F)c(Oc2ccccc2)c1 (stereo unspecified) [Cyfluthrin] | 0.000457 | 0.000833 | 0.000792 | 0.00118 | 0.00116 | 0.000545 | 0.000822 | 0.000467
